Among the data in patent US20240018251A1 (BIOHENG THERAPEUTICS, published 2024) are binding values, retold here.

Sequences of proteins named here, by UniProt entry; tags and fusion partners are left off. Residues count along the entry.
UniProt Q02223, residues 1-54: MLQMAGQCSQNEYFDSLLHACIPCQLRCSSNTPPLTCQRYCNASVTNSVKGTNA

Where a chain is given by its changes, count along the chain named. No constants are given. Whether binding was seen depends on the method and setting. Some results given as binding are weak or reduced against the parent protein; the word gives no strength.

To fix the notation:
B1: anti-BCMA single domain antibody clone BH60 (VHH)
VHH: QEQLVESGGGSVQPGGSLRLSCVVSGGIFTINDMAWFRQAPGKQRELVAHISRSGSTYYRDFVKGRFTISRNNAKNTSYLQMNNLKPEDTATYYCNSIDRPLSYGQGTQVTVS
B2: anti-BCMA single domain antibody clone BH82 (VHH)
VHH: B1 VHH with Q3R, Q13H, P14A, V24A, R60A, R71K, N84S, E88D, Q109L
B3: anti-BCMA single domain antibody clone BH84 (VHH)
VHH: B1 VHH with E2V
B4: anti-BCMA single domain antibody clone BH83 (VHH)
VHH: B1 VHH with Q3R, Q13H, P14A, V24A, R60A, R71K, N84S, E88D
B5: anti-BCMA single domain antibody clone BH80 (VHH)
VHH: B1 VHH with Q109L
B6: anti-BCMA single domain antibody clone BH59 (VHH)
VHH: QEVLMESGGGLVQAGESLRLSCAASGRAISSIVMAWWRQTPGAEREFVASINRWGGTPYYSHSVKGRFTITRDHAKNTIHLQMNNLKSADTAVYYCAAASTLDSGYDYWGQGTLVTVS
B7: anti-BCMA single domain antibody clone BH86 (VHH)
VHH: B6 VHH with H62N, T69A, Q111H, L114Q
B8: anti-BCMA single domain antibody clone BH87 (VHH)
VHH: B6 VHH with H62N, T69A
B9: anti-BCMA single domain antibody clone BH81 (VHH)
VHH: QVHLVESGGGLVKAGGSLRLSCVVSGITLSSYSMAWFRQAPGKQRELVAHISRSGSTYYRDFVKGRFTISRNNAKNTSYLQMNNLKPEDTATYYCNSIDRPLSYGQGTQVTVS

The target of this assay is BCMA (B cell maturation antigen) (UniProt Q02223). Kind of assay: ELISA screening of phage display library, three rounds.
Take B1: the binding result is recorded as “binds”.
As for B2, the entry is “binds”; as for B3, “binds”; as for B4, “binds”.
As to B5, the binding result is recorded as “binds”.
In the case of B6, the binding entry is on record as “binds”.
For B7 the value was “binds”.
For the molecule B8, the binding result was “binds”.
For B9 the value was “binds”.
